Data as given in PubChem BioAssay AID652259 (Drosophila RNAi Screening Center, 2013)

Aim: 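Genome-wide hunt for genes that control Wingless pathway activity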 (primary screen)
System: Drosophila clone 8 imaginal disc epithelial cells
Reagents: long dsRNA against Drosophila genes
Challenge: pathway stimulated by co-transfected Wingless expression plasmid
Read-out: 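Firefly luciferase from a tcf-site Wingless reporter, measured alongside co-transfected Renilla luciferase that tracks transfection; pathway stimulated by a Wingless plasmid; the firefly-to-Renilla ratio is not deposited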
Reading the numbers: firefly reporter light: higher = more Wg reporter light, before normalisation; Renilla control light: higher = more transfected or surviving cells
Call rule: 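Strong candidates differ from their plate mean by at least two out of four per-plate statistical tests; weak candidates meet just one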
Meaning of the calls: active = candidate regulator (raises or lowers reporter); inactive = not a candidate
The screen tested about 22,000 reagents; below is an unselected part of those that have a named target and a result. Of all reagents, 233 (1.1%) were called active. 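Light values are raw, unnormalised plate reads; the ratio scores behind the reporter calls were not deposited.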 The numbers tell different reagents against one gene apart. Names joined by + are all predicted targets of the reagent. Not stated in the record: the amount of reagent, the time to read-out, the dose of the treatment.

Target gene	dsRNA no.	firefly reporter light, replicate 1	firefly reporter light, replicate 2	Renilla control light, replicate 1	Renilla control light, replicate 2	Call
Arp1	1	13552		3572		inactive
hob	1	6007		1856		inactive
CG7420	1	6460		3184		inactive
CG7142	1	17881		3744		inactive
Osi11	1	8540		1540		inactive
CG34345	1	2535	3440	672	1245	inactive
Obsc	1	5004		1301		inactive
Obsc	2	13424		3040		inactive
Obsc	3	2021	7536	729	2791	inactive
Obsc	4	1722	4422	416	2098	inactive
Obsc	5	7.35e5	7.09e5	3.68e5	3.14e5	inactive
CAH2	1	8112		2848		inactive
alien + CG17906	1	3024	7985	983	3429	inactive
kune	1	2761	5440	834	2396	inactive
ODA-Dnal1	1	3546	12357	758	3195	inactive
ymp	1	4774		2459		inactive
ymp	2	31898		21467		inactive
ap	1	8937		2219		inactive
pit	1	38133		7257		inactive
pit	2	7.66e5	7.50e5	3.12e5	3.96e5	inactive
CG15144	1	2534	4549	820	2129	inactive
CG16935	1	4518		1753		inactive
Antdh	1	18108		9368		inactive
Obp99d	1	4758		2224		inactive
Claspin	1	4880		1472		inactive
CG32590	1	23232		12098		inactive
Fur2	1	11905		6104		inactive
RhoBTB	1	3653		1490		inactive
Egm	1	17090		5424		inactive
Egm	2	8.11e5	7.57e5	2.97e5	3.19e5	inactive
mRpL3	1	16154		8808		inactive
LPCAT	1	23472		12701		inactive
LPCAT	2	15106		9911		inactive
CG12590	1	12696		2120		inactive
eIF4H1	1	18220		7067		inactive
Spn43Aa	1	18112		4985		inactive
CG7906	1	5936		3031		inactive
CG34429	1	6268		2952		inactive
nuf	1	6761		2450		inactive
nuf	2	6.19e5	6.18e5	2.13e5	1.87e5	inactive
CG16812	1	12244		1809		inactive
Inx7	1	21383		8084		inactive
ball	1	5013		1228		inactive
Gr8a	1	15490		7682		inactive
CG14196	1	13883		8372		inactive
Klp10A	1	2187	5613	849	1752	inactive
Trf4	1	2896	7456	1031	2845	inactive
CG34417	1	3373		849		inactive
CG34417	2	23936		11520		inactive
CG34417	3	2343	7104	609	2169	inactive
SRPK	1	19059		1869		inactive
CG33454	1	6.90e5	6.97e5	2.76e5	2.16e5	inactive
CG2061	1	2892	6912	1196	2261	inactive
CG43219	1	4553		1894		inactive
Oamb	1	3149		1888		inactive
Oamb	2	20266		4317		inactive
Oamb	3	19889		5756		inactive
CG33306	1	5396		2093		inactive
mRpS6	1	2535	4710	1506	2520	inactive
Tep4	1	1392	5609	568	1978	inactive
CG9861	1	12016		4162		inactive
aph-1	1	10112		4314		inactive
BORCS7 + CG13430	1	10832		2945		inactive
BORCS7 + CG13430	2	4661		2301		inactive
RpS8	1	5922		2384		inactive
Phyhd1	1	21393		4045		inactive
CG13288	1	2052	7142	1712	3510	inactive
lva	1	3569	8726	1728	3432	inactive
Mad	1	2506	9286	992	2875	inactive
kra	1	6497		1905		inactive
CG5439	1	6310		2310		inactive
Oatp58Da	1	4056	8938	965	4106	inactive
CG14212	1	13830		8869		inactive

Laid out differently: results already given.
{"Target gene": "Obsc", "dsRNA no.": 4, "firefly reporter light, replicate 1": 1722, "firefly reporter light, replicate 2": 4422, "Renilla control light, replicate 1": 416, "Renilla control light, replicate 2": 2098, "Call": "inactive"}
{"Target gene": "Obsc", "dsRNA no.": 5, "firefly reporter light, replicate 1": 7.35e5, "firefly reporter light, replicate 2": 7.09e5, "Renilla control light, replicate 1": 3.68e5, "Renilla control light, replicate 2": 3.14e5, "Call": "inactive"}
{"Target gene": "CAH2", "dsRNA no.": 1, "firefly reporter light, replicate 1": 8112, "Renilla control light, replicate 1": 2848, "Call": "inactive"}
{"Target gene": "alien + CG17906", "dsRNA no.": 1, "firefly reporter light, replicate 1": 3024, "firefly reporter light, replicate 2": 7985, "Renilla control light, replicate 1": 983, "Renilla control light, replicate 2": 3429, "Call": "inactive"}
{"Target gene": "kune", "dsRNA no.": 1, "firefly reporter light, replicate 1": 2761, "firefly reporter light, replicate 2": 5440, "Renilla control light, replicate 1": 834, "Renilla control light, replicate 2": 2396, "Call": "inactive"}
